# Measured values taken from the supplement of paper PMC8728848.
# The other results are listed elsewhere or left out.
# B1: Erv41-EDTA (Saccharomyces cerevisiae), Q04651 (protein)
# chain: MKFLVNVALVFMVVYISYIYAAAPEHHHHHHDYDIPTTENLYFQGAMGYIDQQYVVDSQVRDTVQINMDIYVNTKCDWLQINVRDQTMDRKLVLEELQLEEMPFFIPYDTKVNDINEIITPELDEILGEAIPAEFREKLDTRSFFDESDPNKAHLPEFNGCHVFGSIPVNRVSGELQITAKSLGYVASRKAPLEELKFNHVINEFSFGDFYPYIDNPLDNTAQFNQDEPLTTYVYYTSVVPTLFKKLGAEVDTNQYSVNDYRYLYKDVAAKGDKMPGIFFKYNFEPLSIVVSDVRL
# How the values were obtained:
# Assay in all cases: glycan array binding signal (z-score within array); higher = stronger binding
# Conditions in all cases: glycan notation: IUPAC condensed, linker removed
# [1] = biological target: Fuc(a1-2)Gal(b1-4)GlcNAc(b1-3)Gal(b1-4)GlcNAc(b1-2)Man(a1-3)[Fuc(a1-2)Gal(b1-4)GlcNAc(b1-3)Gal(b1-4)GlcNAc(b1-2)Man(a1-6)]Man(b1-4)GlcNAc(b1-4)GlcNAc
# Summary of the method: (§1)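 From the Consortium for Functional Glycomics database, 3228 arrays were curated, keeping only those whose protein sequence was available. Binding is given as a within-array Z-score averaged across arrays sharing a protein sequence and across linkers. Negative Z-scores can be read as non-binding.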
# [2] = biological target: Fuc(a1-2)Gal(b1-4)GlcNAc(b1-3)Gal(b1-4)GlcNAc(b1-3)Gal(b1-4)GlcNAc
# Summary of the method: as §1
# [3] = biological target: Fuc(a1-2)Gal(b1-4)GlcNAc(b1-3)GalNAc
# Summary of the method: as §1
# [4] = biological target: Fuc(a1-2)Gal(b1-4)GlcNAc(b1-3)[Fuc(a1-2)Gal(b1-4)GlcNAc(b1-6)]GalNAc
# Summary of the method: as §1
# [5] = biological target: Fuc(a1-2)Gal(b1-4)GlcNAc(b1-3)[Fuc(a1-3)[Gal(b1-4)]GlcNAc(b1-6)]Gal(b1-4)Glc
# Summary of the method: as §1
# [6] = biological target: Fuc(a1-2)Gal(b1-4)GlcNAc(b1-6)GalNAc
# Summary of the method: as §1
# [7] = biological target: Fuc(a1-2)Gal(b1-4)GlcNAc6S
# Summary of the method: as §1
# [8] = biological target: Fuc(a1-2)Gal(b1-4)[Fuc(a1-3)]GlcNAc
# Summary of the method: as §1
# [9] = biological target: Fuc(a1-2)Gal(b1-4)[Fuc(a1-3)]GlcNAc(b1-2)Man(a1-3)[Fuc(a1-2)Gal(b1-4)[Fuc(a1-3)]GlcNAc(b1-2)Man(a1-6)]Man(b1-4)GlcNAc(b1-4)[Fuc(a1-6)]GlcNAc
# Summary of the method: as §1
# [10] = biological target: Fuc(a1-2)Gal(b1-4)[Fuc(a1-3)]GlcNAc(b1-2)[Fuc(a1-2)Gal(b1-4)[Fuc(a1-3)]GlcNAc(b1-4)]Man(a1-3)[Fuc(a1-2)Gal(b1-4)[Fuc(a1-3)]GlcNAc(b1-2)Man(a1-6)]Man(b1-4)GlcNAc(b1-4)GlcNAc
# Summary of the method: as §1
# [11] = biological target: Fuc(a1-2)Gal(b1-4)[Fuc(a1-3)]GlcNAc(b1-3)Gal(b1-4)[Fuc(a1-3)]GlcNAc
# Summary of the method: as §1
# [12] = biological target: Fuc(a1-2)Gal(b1-4)[Fuc(a1-3)]GlcNAc(b1-3)Gal(b1-4)[Fuc(a1-3)]GlcNAc(b1-3)Gal(b1-4)[Fuc(a1-3)]GlcNAc
# Summary of the method: as §1
# [13] = biological target: Fuc(a1-2)Gal(b1-4)[Fuc(a1-3)]GlcNAc(b1-3)GalNAc
# Summary of the method: as §1
# [14] = biological target: Fuc(a1-2)Gal(b1-4)[Fuc(a1-3)]GlcNAc(b1-3)[Neu5Ac(a2-6)Gal(b1-4)GlcNAc(b1-6)]Gal(b1-4)Glc
# Summary of the method: as §1
# [15] = biological target: Fuc(a1-2)Gal3S(b1-4)GlcNAc
# Summary of the method: as §1
# [16] = biological target: Fuc(a1-2)Gal6S(b1-3)GlcNAc
# Summary of the method: as §1
# [17] = biological target: Fuc(a1-2)Gal6S(b1-3)GlcNAc6S
# Summary of the method: as §1
# Fuc(a1-2)Gal6S(b1-4)Glc = biological target: Fuc(a1-2)Gal6S(b1-4)Glc
# Summary of the method: as §1
# [18] = biological target: Fuc(a1-2)Gal6S(b1-4)Glc6S
# Summary of the method: as §1
# Fuc(a1-2)[Gal(a1-3)]Gal = biological target: Fuc(a1-2)[Gal(a1-3)]Gal
# Summary of the method: as §1
# [19] = biological target: Fuc(a1-2)[Gal(a1-3)]Gal(b1-3)GalNAc
# Summary of the method: as §1
# [20] = biological target: Fuc(a1-2)[Gal(a1-3)]Gal(b1-3)GalNAc(b1-3)Gal(a1-4)Gal(b1-4)Glc
# Summary of the method: as §1
# [21] = biological target: Fuc(a1-2)[Gal(a1-3)]Gal(b1-3)GlcNAc
# Summary of the method: as §1
# [22] = biological target: Fuc(a1-2)[Gal(a1-3)]Gal(b1-3)GlcNAc(b1-2)Man(a1-3)[Fuc(a1-2)[Gal(a1-3)]Gal(b1-3)GlcNAc(b1-2)Man(a1-6)]Man(b1-4)GlcNAc(b1-4)GlcNAc
# Summary of the method: as §1
# [23] = biological target: Fuc(a1-2)[Gal(a1-3)]Gal(b1-3)GlcNAc(b1-2)Man(a1-3)[Fuc(a1-2)[Gal(a1-3)]Gal(b1-3)GlcNAc(b1-2)Man(a1-6)]Man(b1-4)GlcNAc(b1-4)[Fuc(a1-6)]GlcNAc
# Summary of the method: as §1
# [24] = biological target: Fuc(a1-2)[Gal(a1-3)]Gal(b1-3)GlcNAc(b1-3)GalNAc
# Summary of the method: as §1
# [25] = biological target: Fuc(a1-2)[Gal(a1-3)]Gal(b1-3)GlcNAc(b1-6)GalNAc
# Summary of the method: as §1
# [26] = biological target: Fuc(a1-2)[Gal(a1-3)]Gal(b1-4)Glc
# Summary of the method: as §1
# [27] = biological target: Fuc(a1-2)[Gal(a1-3)]Gal(b1-4)GlcNAc
# Summary of the method: as §1
# [28] = biological target: Fuc(a1-2)[Gal(a1-3)]Gal(b1-4)GlcNAc(b1-2)Man
# Summary of the method: as §1
binder,measurement,setting,value
B1,glycan array binding signal (z-score),[1],0.804
same,glycan array binding signal (z-score),[2],0.157
same,glycan array binding signal (z-score),[3],0.327
same,glycan array binding signal (z-score),[4],-0.867
same,glycan array binding signal (z-score),[5],-1.07
same,glycan array binding signal (z-score),[6],-0.761
same,glycan array binding signal (z-score),[7],0.642
same,glycan array binding signal (z-score),[8],-0.1
same,glycan array binding signal (z-score),[9],-0.831
same,glycan array binding signal (z-score),[10],1.26
same,glycan array binding signal (z-score),[11],-1.05
same,glycan array binding signal (z-score),[12],-0.801
same,glycan array binding signal (z-score),[13],-0.219
same,glycan array binding signal (z-score),[14],-0.589
same,glycan array binding signal (z-score),[15],-0.093
same,glycan array binding signal (z-score),[16],0.005
same,glycan array binding signal (z-score),[17],0.258
same,glycan array binding signal (z-score),Fuc(a1-2)Gal6S(b1-4)Glc,-1.5
same,glycan array binding signal (z-score),[18],-0.907
same,glycan array binding signal (z-score),Fuc(a1-2)[Gal(a1-3)]Gal,-0.717
same,glycan array binding signal (z-score),[19],-0.045
same,glycan array binding signal (z-score),[20],-0.396
same,glycan array binding signal (z-score),[21],0.444
same,glycan array binding signal (z-score),[22],-0.073
same,glycan array binding signal (z-score),[23],0.605
same,glycan array binding signal (z-score),[24],-0.124
same,glycan array binding signal (z-score),[25],0.15
same,glycan array binding signal (z-score),[26],0.06
same,glycan array binding signal (z-score),[27],0.485
same,glycan array binding signal (z-score),[28],0.358

# Not a retest: entries from further up.
binder,measurement,setting,value
B1,glycan array binding signal (z-score),[3],0.327
same,glycan array binding signal (z-score),[4],-0.867
